Data published in PubChem BioAssay AID2124 (Sanford-Burnham Center for Chemical Genomics, 2009).
Inconclusive means that the source gave no clear call. Such entries were picked first, then a sample of the others. Calls of active or inactive are those of the source. The rule behind the calls is not given here; tested in MIN6 cells.

Assay: GFP-wavelength compound autofluorescence in cells – imaging, high-content imaging, artefact control, dose response (AID 2124);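 note: cells exposed to compound for 48 hours before fixing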
Conditions: GFP-channel autofluorescence, at 10 µM, hits give high values

SMILES	z-score
O=C1S/C(=C\c2ccc(N3CCOCC3)o2)C(=O)N1Cc1c(F)cccc1Cl	active: 2.04
CN(C)c1ccc(/C=C2\CCC/C(=C\c3ccccc3)C2=O)cc1	inconclusive: -0.17
CCOC(=O)Cn1c(=O)c(-c2cc(Br)ccc2N)nc2ccccc21	inconclusive: -0.15
COc1cc(N=Nc2cccc(S(N)(=O)=O)c2)c2ccccc2c1N	inconclusive: -0.13
CCCCN(C)CC(O)Cn1cc(/C=C/C(=O)c2cccs2)c2ccccc21 (configuration not stated)	inconclusive: -0.14
CC(NC(=O)/C(C#N)=C1\N=C(NC(=O)c2ccco2)c2ccccc21)c1ccccc1 (configuration not stated)	inactive: -0.32
CCNc1ccc2noc3c2c1C(=O)c1ccccc1-3	inconclusive: -0.2
Cc1cccc(OCCNc2nc3c(c(=O)n(C)c(=O)n3C)n2C)c1	inactive: -0.33
CC(=O)Nc1sc(/C(C#N)=C/c2ccc(Cl)c(Cl)c2)nc1-c1ccc(C)cc1	active: 1.08
Cc1ccnc(N2C(=O)c3cccc4c([N+](=O)[O-])ccc(c34)C2=O)c1	active: 0.09
C=CCSc1nnc(C)c(/C=C/Nc2ccc(Cl)cc2)n1	inconclusive: -0.2
O=[N+]([O-])c1ccc(-c2ccc(/C=N/Nc3nc(N4CCCCC4)nc(N4CCCCC4)n3)o2)cc1	inconclusive: -0.18
O=C(/C=C/c1cn(CC(O)CN2CCCCC2)c2ccccc12)c1cccs1 (configuration not stated)	inconclusive: -0.13
C1=C(c2ccccc2)Nc2nnnn2C1	inactive: -0.26
Cn1cc(/C=C2\SC(=S)N(NC(=O)c3ccccc3)C2=O)c2ccccc21	inconclusive: -0.2
N#C/C(=C\C1=C(N2CCOCC2)C(=C\c2ccc(Cl)cc2)/CC1)C(=O)Nc1ccccc1F	inactive: -0.24
Nc1c(C(=O)N/N=C/c2cccnc2)oc2nc(-c3ccccc3)cc(-c3ccco3)c12	inconclusive: -0.2
COCCNC(=S)N/N=C/c1ccc(-c2ccc([N+](=O)[O-])cc2)o1	inconclusive: -0.22
CN1/C(=C\C=C(/C#N)C(=O)Nc2ccc(Cl)cc2)C(C)(C)c2ccccc21	inconclusive: 0.22

A draw from above in order of length of the SMILES, falling:
SMILES	z-score
N#C/C(=C\C1=C(N2CCOCC2)C(=C\c2ccc(Cl)cc2)/CC1)C(=O)Nc1ccccc1F	inactive: -0.24
Nc1c(C(=O)N/N=C/c2cccnc2)oc2nc(-c3ccccc3)cc(-c3ccco3)c12	inconclusive: -0.2
Cn1cc(/C=C2\SC(=S)N(NC(=O)c3ccccc3)C2=O)c2ccccc21	inconclusive: -0.2

The list continues:

SMILES	z-score
CCCN(CCC)c1ccc(/C=C/c2ccc3cc(OCC)ccc3n2)cc1	inconclusive: -0.11
CCCn1c(SCC(=O)NC2CCCCC2)nnc1-c1ccncc1	inactive: -0.25
O=Cc1sc(Nc2ccccc2)nc1Cl	inactive: -0.31
Cc1cc(/C=C2\SC(=S)NC2=O)c(C)n1C1CC1	inactive: -0.3
O=C(/C=C/c1cn(CC(O)CN2CCCCCC2)c2ccccc12)c1cccs1 (configuration not stated)	inconclusive: -0.19
CSc1nsc(/C=C/Nc2ccc(C)cc2)c1C#N	inconclusive: -0.18
Cc1ccc(CNc2ccc3c(c2)OCO3)c(C)c1	inconclusive: -0.05
CCOc1cc([N+](=O)[O-])cc2c1C(=O)Nc1ccccc1O2	inconclusive: -0.19
COc1ccc(-c2ccc3c(N)c(C(=O)c4cccc(OC)c4)sc3n2)cc1	inactive: -0.24
O=[N+]([O-])c1ccc(N/N=C/c2cn(Cc3ccc(F)cc3)c3ccccc23)nc1	inconclusive: -0.21
Cc1ccc(-c2cc(-c3ccco3)c3c(N)c(C(=O)NN)oc3n2)cc1	inactive: -0.32
O=[N+]([O-])c1ccc(-c2ccc(/C=N/Nc3nc(NCc4ccccc4)nc(N4CCOCC4)n3)o2)cc1	inconclusive: -0.14
CCCCCCc1cc2cc(-c3nnc(-c4cc(OC)c(OC)c(OC)c4)o3)c(=O)oc2cc1O	inconclusive: -0.2
CCOC(=O)C1=C(C)NC(=O)NC1c1ccc(N2CCC(c3ccccc3)=N2)cc1 (configuration not stated)	inconclusive: -0.16
CCn1c(SCC(=O)c2c[nH]c3ccccc23)nc2cc(S(=O)(=O)N3CCOCC3)ccc21	inactive: -0.36
CC(=O)C1=C(C)NC(SCC(=O)c2ccc(Cl)c(Cl)c2)=C(C#N)C1c1ccco1 (configuration not stated)	inconclusive: -0.18
Nc1c(C(=O)C2CC2)sc2nc(-c3ccccc3)cc(C(F)(F)F)c12	active: 0.39
CC1CC(C)(C)Nc2ccc(N=O)cc21 (configuration not stated)	inconclusive: -0.07
